This is an account of results in paper PMC3489907.

The chains behind the UniProt entries cited, without tags or fusion partners. Where a name states a change or a piece, a line headed by the entry shows the natural chain unless it says otherwise.
UniProt P68739: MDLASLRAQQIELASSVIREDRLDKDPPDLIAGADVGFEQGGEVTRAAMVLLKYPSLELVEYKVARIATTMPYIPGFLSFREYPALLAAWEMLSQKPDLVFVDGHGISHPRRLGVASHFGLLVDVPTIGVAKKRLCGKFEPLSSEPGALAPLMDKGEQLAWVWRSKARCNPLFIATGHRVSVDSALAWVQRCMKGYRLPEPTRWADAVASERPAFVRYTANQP

Assay in all cases: EMSA
On the technique in general: In EMSA bound probe runs differently from free probe, usually more slowly.

The target of series [1] is T1, ENDOV-Y91A (Homo sapiens) (UniProt Q8N8Q3).
T1 sequence (looked up): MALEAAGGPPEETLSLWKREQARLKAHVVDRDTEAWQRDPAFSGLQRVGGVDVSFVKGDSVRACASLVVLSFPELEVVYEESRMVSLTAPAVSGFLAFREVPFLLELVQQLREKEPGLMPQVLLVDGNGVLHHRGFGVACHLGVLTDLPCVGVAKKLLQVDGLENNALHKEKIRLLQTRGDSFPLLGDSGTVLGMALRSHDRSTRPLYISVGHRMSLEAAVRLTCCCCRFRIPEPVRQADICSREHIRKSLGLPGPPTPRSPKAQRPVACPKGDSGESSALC
To be noted: 5 mM Ca2+, as WT, EMSA: 10 fmol DNA in 10 µl, 5 ng pQE31 competitor DNA, 5 mM CaCl2, 10 mM HEPES-KOH pH 7.4, 1 mM DTT, 20% glycerol, 4°C 15 min, 10% native PAGE with 5 mM CaCl2 on ice, recombinant protein, residues 1-282, folded or branched DNA.

Series [2] deals with T2, ENDOV-RK R248E,K249E (Homo sapiens) (UniProt Q8N8Q3).
T2 sequence (looked up): T1 sequence (looked up) with A91Y, R248E, K249E
To be noted: 5 mM Ca2+, binding completely lost, EMSA: 10 fmol DNA in 10 µl, 5 ng pQE31 competitor DNA, 5 mM CaCl2, 10 mM HEPES-KOH pH 7.4, 1 mM DTT, 20% glycerol, 4°C 15 min, 10% native PAGE with 5 mM CaCl2 on ice, recombinant protein, residues 1-282, folded or branched DNA.

The target in series [3] is T3, ENDOV-Wg (wedge mutant) P90G,Y91G,V92G,S93G (Homo sapiens) (UniProt Q8N8Q3).
T3 sequence (looked up): T1 sequence (looked up) with P90G, A91G, V92G, S93G
The conditions noted are these: 5 mM Ca2+, strongly compromised, EMSA: 10 fmol DNA in 10 µl, 5 ng pQE31 competitor DNA, 5 mM CaCl2, 10 mM HEPES-KOH pH 7.4, 1 mM DTT, 20% glycerol, 4°C 15 min, 10% native PAGE with 5 mM CaCl2 on ice, recombinant protein, residues 1-282, folded or branched DNA.

Series [4] concerns the target T4, ENDOV WT (human endonuclease V, exon 10 isoform) (Homo sapiens) (UniProt Q8N8Q3).
T4 sequence (looked up): T1 sequence (looked up) with A91Y
The conditions noted are these: 5 mM Ca2+, very weak and unspecific; EMSA: 10 fmol DNA in 10 µl, 5 ng pQE31 competitor DNA, 5 mM CaCl2, 10 mM HEPES-KOH pH 7.4, 1 mM DTT, 20% glycerol, 4°C 15 min; 10% native PAGE with 5 mM CaCl2 on ice; recombinant protein; residues 1-282; label: 5'-32P on strand 1.

The target of series [5] is E. coli endoV (Escherichia coli) (UniProt P68739). To be noted: 5 mM Ca2+, smear, no distinct shift; EMSA: 10 fmol DNA in 10 µl, 5 ng pQE31 competitor DNA, 5 mM CaCl2, 10 mM HEPES-KOH pH 7.4, 1 mM DTT, 20% glycerol, 4°C 15 min; 10% native PAGE with 5 mM CaCl2 on ice; recombinant protein; residues 1-223; label: 5'-32P on strand 1.

Where a chain is given by its changes, count along the chain named. For some assays here: Negatives hold for the conditions tested. For some assays here: At least one verdict rests on a figure or table, not on a statement of the authors. For some assays here: Protein sequences can lack the tags named with them. For some assays here: Weaker means in comparison with the reference protein, sequence or condition of that experiment. For some assays here: The exact form of at least one protein or probe is not confirmed.

With “CCGCTACCAGTGATCACCAATGGATTGCTAGGACATCTTTGCCCACCTGCAGGTTCACCC / TGGGTGAACCTGCAGGTGGGCAAAGATGTCCTAGCAATCCATTGTCTATGACGTCAAGCT / GAGCTTGACGTCATAGACAATGGATTGCTAGGACATCTTTGCCGTCTTGTCAATATCGGC / TGCCGATATTGACAAGACGGCAAAGATGTCCTAGCAATCCATTGGTGATCACTGGTAGCGG [Holliday junction (16+17*+18+19)]”, the binding result in series [1] (label: 5'-32P on strand 2) is on record as “binds”; in series [2] (label: 5'-32P on strand 2), “no binding”; in series [3] (label: 5'-32P on strand 2), “binds more weakly”.
With “CCGTAGAGCTACAGATCGGTCACCG (double strand) [undamaged dsDNA (1+2*)]”, the binding result in series [4] and in series [5] was “binds more weakly” in each case.
Regarding “GGATACGTAACAACGCTTATGCATCGCCGCCGCTACATCCCTGAGCTGAC / ATGCATAAGCGTTGTTACGTATCC / GTCAGCTCAGGGATGTAGCGGCGGAGTCATTCTGATCGAGATCGAACACA / TGTGTTCGATCTCGATCAGAATGA [fork (10+11+14*+15)]”, the values for the binding result in series [1] (label: 5'-32P on strand 3), in series [2] (label: 5'-32P on strand 3) and in series [3] (label: 5'-32P on strand 3) were “binds”, “no binding” and “binds more weakly”, respectively.
“GGATACGTAACAACGCTTATGCATCGCCGCCGCTACATCCCTGAGCTGAC / ATGCATAAGCGTTGTTACGTATCC / GTCAGCTCAGGGATGTAGCGGCGGAGTCATTCTGATCGAGATCGAACACA [3'-flap (10+11+14*)]”: the binding result in series [1] (label: 5'-32P on strand 3) was “binds”; in series [2] (label: 5'-32P on strand 3), “no binding”; in series [3] (label: 5'-32P on strand 3), “binds more weakly”.
In the same order, the values of “GGATACGTAACAACGCTTATGCATCGCCGCCGCTACATCCCTGAGCTGAC / GTCAGCTCAGGGATGTAGCGGCGG / TGTGTTCGATCTCGATCAGAATGACGATGCATAAGCGTTGTTACGTATCC [5'-flap (10+12+13*)]” are “binds”, “no binding” and “binds more weakly”.
As for “GGATACGTAACAACGCTTATGCATCGCCGCCGCTACATCCCTGAGCTGAC / TGTGTTCGATCTCGATCAGAATGACGATGCATAAGCGTTGTTACGTATCC / GTCAGCTCAGGGATGTAGCGGCGGAGTCATTCTGATCGAGATCGAACACA [3-way junction (10*+13+14)]”, the binding result in series [1] (label: 5'-32P on strand 1) is “binds”; in series [2] (label: 5'-32P on strand 1), “no binding”; in series [3] (label: 5'-32P on strand 1), “binds more weakly”.
In the case of “GGATACGTAACAACGCTTATGCATCGCCGCCGCTACATCCCTGAGCTGAC / TGTGTTCGATCTCGATCAGAATGACGATGCATAAGCGTTGTTACGTATCC [pseudo-Y (10*+13)]”, the binding result in series [1] (label: 5'-32P on strand 1) is “binds”; in series [2] (label: 5'-32P on strand 1), “no binding”; in series [3] (label: 5'-32P on strand 1), “binds more weakly”.
